Results are given in words; binding and its absence hold for the method and conditions named. For part of these data: In cells and extracts the contact can be indirect. Some entries that bind do so weakly or less than the wild type. For part of these data: Sequences can lack the tags named with a protein.
How the values were obtained:
[1] = molecular target: L1CAM ectodomain (Fc and AP fusions) (not stated (human or mouse ectodomain sequences)) (UniProt P11627); assay: ELISA; 384-well pairwise screen; ecto-AP fusion captured on plate by anti-AP antibody, ecto-Fc fusion detected with anti-human IgG1-HRP; conditioned media, 4 h RT; both orientations; positive: OD650 > 5-fold over background, detected at least twice in three experiments
[2] = molecular target: T1, Neurofascin ectodomain (Fc and AP fusions) (not stated (human or mouse ectodomain sequences)) (UniProt Q810U3); assay: as above
T1 sequence: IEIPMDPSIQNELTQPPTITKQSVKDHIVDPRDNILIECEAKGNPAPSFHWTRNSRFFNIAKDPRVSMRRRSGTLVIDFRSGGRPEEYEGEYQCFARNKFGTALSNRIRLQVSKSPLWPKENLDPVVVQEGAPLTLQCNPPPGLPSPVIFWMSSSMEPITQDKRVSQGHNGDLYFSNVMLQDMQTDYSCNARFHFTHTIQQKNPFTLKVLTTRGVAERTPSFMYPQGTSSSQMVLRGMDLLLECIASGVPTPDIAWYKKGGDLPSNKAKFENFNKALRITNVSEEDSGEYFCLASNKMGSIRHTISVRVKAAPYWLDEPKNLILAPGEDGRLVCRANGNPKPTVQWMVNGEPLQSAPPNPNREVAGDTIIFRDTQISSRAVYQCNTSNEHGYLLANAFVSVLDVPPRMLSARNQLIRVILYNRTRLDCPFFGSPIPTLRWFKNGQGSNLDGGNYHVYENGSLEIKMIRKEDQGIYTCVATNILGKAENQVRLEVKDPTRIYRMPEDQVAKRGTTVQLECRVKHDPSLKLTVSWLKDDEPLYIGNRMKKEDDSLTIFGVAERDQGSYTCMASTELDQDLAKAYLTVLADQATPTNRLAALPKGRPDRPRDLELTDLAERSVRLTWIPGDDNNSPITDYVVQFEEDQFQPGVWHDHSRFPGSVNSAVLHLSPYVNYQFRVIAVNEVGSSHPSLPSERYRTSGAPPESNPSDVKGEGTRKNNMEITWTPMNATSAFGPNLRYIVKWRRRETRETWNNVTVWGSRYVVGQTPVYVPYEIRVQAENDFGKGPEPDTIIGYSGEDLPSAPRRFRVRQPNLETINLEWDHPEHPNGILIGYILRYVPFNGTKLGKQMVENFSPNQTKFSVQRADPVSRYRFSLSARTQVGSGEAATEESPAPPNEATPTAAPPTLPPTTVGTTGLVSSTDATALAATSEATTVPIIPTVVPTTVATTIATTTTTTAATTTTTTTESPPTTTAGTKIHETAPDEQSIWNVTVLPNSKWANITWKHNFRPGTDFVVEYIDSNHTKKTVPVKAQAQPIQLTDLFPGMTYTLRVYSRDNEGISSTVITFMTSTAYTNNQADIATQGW

Amino acid sequences for entries named in this document (tags omitted). Residues count along the entry.
UniProt P11627, residues 20-1123: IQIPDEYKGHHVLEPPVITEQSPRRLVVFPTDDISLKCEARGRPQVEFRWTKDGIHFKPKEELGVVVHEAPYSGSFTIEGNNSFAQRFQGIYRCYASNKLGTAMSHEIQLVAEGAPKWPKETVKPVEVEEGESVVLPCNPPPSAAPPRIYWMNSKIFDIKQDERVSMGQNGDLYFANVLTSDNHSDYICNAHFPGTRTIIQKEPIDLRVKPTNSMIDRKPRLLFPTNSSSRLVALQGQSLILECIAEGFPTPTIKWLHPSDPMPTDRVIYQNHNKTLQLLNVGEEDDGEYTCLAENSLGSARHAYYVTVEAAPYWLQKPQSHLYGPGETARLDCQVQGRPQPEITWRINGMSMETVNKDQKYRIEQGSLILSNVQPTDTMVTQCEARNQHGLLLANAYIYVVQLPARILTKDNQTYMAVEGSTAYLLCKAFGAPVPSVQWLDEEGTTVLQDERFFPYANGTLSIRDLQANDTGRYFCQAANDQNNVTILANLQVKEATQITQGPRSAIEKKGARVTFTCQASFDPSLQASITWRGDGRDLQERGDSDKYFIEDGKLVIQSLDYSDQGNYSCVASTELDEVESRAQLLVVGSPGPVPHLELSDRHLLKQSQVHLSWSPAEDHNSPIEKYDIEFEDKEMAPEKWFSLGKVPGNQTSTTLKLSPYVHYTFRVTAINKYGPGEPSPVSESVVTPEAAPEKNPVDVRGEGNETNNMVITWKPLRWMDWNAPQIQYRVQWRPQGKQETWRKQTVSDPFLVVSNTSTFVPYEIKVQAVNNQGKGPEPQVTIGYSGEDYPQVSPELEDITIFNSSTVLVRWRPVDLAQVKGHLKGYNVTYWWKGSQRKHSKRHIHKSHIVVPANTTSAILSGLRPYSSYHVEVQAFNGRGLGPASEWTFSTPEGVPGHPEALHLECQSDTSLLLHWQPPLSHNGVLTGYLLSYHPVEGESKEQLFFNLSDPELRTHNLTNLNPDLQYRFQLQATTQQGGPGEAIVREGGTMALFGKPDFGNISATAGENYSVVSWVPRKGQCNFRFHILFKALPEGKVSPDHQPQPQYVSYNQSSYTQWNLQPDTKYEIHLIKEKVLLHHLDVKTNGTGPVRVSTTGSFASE
UniProt Q810U4, residues 30-1119: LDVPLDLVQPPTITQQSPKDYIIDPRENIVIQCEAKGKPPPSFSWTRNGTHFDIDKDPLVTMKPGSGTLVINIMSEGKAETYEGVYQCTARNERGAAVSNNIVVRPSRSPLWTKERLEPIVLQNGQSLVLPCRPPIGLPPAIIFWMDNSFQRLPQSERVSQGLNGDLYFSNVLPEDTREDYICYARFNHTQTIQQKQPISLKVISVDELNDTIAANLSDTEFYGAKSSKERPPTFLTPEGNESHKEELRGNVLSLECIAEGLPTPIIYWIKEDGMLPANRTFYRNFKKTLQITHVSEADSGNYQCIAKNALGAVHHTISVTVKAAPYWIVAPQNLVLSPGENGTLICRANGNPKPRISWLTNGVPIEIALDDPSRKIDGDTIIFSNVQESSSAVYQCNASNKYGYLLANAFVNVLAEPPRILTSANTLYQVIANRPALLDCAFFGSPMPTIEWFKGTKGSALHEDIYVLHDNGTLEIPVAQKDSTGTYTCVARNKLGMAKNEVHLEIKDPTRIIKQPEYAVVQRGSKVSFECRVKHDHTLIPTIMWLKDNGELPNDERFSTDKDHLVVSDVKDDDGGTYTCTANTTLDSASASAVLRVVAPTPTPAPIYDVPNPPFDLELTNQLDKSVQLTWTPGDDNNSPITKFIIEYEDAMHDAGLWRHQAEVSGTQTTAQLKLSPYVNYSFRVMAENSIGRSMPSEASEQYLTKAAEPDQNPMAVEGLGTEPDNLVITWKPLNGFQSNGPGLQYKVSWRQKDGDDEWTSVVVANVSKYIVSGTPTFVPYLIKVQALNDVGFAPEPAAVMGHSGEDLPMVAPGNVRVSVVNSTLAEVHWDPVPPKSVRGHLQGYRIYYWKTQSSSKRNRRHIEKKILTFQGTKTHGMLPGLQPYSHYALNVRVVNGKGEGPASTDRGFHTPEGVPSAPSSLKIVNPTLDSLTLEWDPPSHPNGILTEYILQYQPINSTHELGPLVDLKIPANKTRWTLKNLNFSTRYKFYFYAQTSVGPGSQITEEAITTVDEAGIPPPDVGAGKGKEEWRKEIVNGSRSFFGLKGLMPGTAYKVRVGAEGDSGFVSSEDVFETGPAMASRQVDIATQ

[3] = molecular target: T2, IgSF8-Fc (not stated (human or mouse ectodomain sequences)) (UniProt Q8R366); assay: pull-down; 3 ug purified Fc fusion added to 1 ml RIPA lysate of transfected HEK293T cells, overnight 4 °C, Protein-A agarose beads, western blot with anti-GFP; only the target purified
T2 sequence: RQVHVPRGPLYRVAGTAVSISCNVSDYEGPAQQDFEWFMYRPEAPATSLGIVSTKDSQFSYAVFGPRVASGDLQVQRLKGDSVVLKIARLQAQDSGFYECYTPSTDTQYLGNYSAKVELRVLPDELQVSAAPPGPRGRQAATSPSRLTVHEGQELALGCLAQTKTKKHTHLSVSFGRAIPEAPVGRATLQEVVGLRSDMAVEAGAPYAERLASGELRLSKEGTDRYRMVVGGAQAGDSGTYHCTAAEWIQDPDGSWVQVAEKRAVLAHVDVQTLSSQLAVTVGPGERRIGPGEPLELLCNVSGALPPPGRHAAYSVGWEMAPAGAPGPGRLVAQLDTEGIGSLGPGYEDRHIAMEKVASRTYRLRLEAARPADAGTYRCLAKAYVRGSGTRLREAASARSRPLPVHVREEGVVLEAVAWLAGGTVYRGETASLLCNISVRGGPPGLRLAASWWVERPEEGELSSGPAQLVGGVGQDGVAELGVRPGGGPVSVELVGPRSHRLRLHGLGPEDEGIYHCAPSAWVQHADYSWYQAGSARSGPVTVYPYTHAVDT

[4] = molecular target: T3, LGI1 (Fc and AP fusions) (not stated (human or mouse sequences)) (UniProt Q9JIA1); assay: ELISA; 384-well pairwise screen; ecto-AP fusion captured on plate by anti-AP antibody, ecto-Fc fusion detected with anti-human IgG1-HRP; conditioned media, 4 h RT; both orientations; positive: OD650 > 5-fold over background, detected at least twice in three experiments
T3 sequence: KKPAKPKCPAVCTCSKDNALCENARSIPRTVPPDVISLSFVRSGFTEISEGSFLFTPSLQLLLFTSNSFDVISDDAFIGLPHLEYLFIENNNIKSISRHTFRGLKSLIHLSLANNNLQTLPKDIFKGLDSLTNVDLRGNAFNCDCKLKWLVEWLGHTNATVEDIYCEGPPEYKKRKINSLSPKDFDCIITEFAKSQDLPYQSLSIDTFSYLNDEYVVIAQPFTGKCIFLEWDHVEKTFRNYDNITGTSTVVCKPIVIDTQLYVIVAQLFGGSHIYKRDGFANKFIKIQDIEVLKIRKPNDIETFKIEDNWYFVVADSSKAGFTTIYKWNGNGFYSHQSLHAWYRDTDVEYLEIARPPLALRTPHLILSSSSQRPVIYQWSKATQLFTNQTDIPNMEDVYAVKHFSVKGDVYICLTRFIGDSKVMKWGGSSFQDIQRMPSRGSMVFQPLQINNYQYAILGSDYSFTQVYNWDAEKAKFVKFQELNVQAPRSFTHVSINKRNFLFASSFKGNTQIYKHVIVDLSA

[5] = molecular target: NCAM2 ectodomain (Fc and AP fusions) (not stated (human or mouse ectodomain sequences)) (UniProt O35136); assay: as above
[6] = molecular target: ALCAM ectodomain (Fc and AP fusions) (not stated (human or mouse ectodomain sequences)) (UniProt Q61490); assay: as above

“L1CAM ectodomain (Fc and AP fusions) (from UniProt P11627 20-1123) (domain or fragment)” was tested, and the binding [1] was “binds”.

For “NrCAM ectodomain (Fc and AP fusions) (from UniProt Q810U4 30-1119) (domain or fragment)”, the binding [2] was “binds”.

B1: Tenascin-R-EGFP (protein, UniProt Q8BYI9 32-1358)
chain: RLEVTTERAQRQTVEEEGGASSYNTSSKEQPMVFNHVYNINVPLESLCSSGLEASAEQDMSAEDDTLAEYIGQTSDHESQVTFTHKINLPKKACPCASSSQVLQELLSRIEMLEREVSLLRDQCNTNCCQESAATGQLDYVPHCSGHGNFSFESCGCICNEGWFGKNCSEPYCPLGCSSRGVCVDGQCICDSEYSGDDCSELRCPTDCSSRGLCVDGECVCEEPYTGEDCRELRCPGDCSGKGQCANGTCLCQEGYAGEDCSQRRCLNACSGRGHCQEGLCICEEGYQGPDCSAVAPPEDLRVAGISDRSIELEWDGPMAVTEYVISYQPTALGGLQLQQRVPGDWSGVTIMELEPGLTYNISVYAVISNILSLPITAKVATHLSTPQGLQFKTITETTVEVQWEPFSFSFDGWEISFIPKNNEGGVIAQLPSDVTSFNQTGLKPGEEYIVNVVALKEQARSPPTSASVSTVIDGPTQILVRDVSDTVAFVEWTPPRAKVDFILLKYGLVGGEGGKTTFRLQPPLSQYSVQALRPGSRYEVSISAVRGTNESEASSTQFTTEIDAPKNLRVGSRTATSLDLEWDNSEAEAQEYKVVYSTLAGEQYHEVLVPKGIGPTTKTTLTDLVPGTEYGVGISAVMNSKQSIPATMNARTELDSPRDLMVTASSETSISLIWTKASGPIDHYRITFTPSSGISSEVTVPRDRTSYTLTDLEPGAEYIISITAERGRQQSLESTVDAFTGFRPISHLHFSHVTSSSVNITWSDPSPPADRLILNYSPRDKEEDMLEVLLDATKRHAVLMGLQPATEYIVNLVAVHGTVTSEPIVGSITTGIDPPKNITISNVTKDSLTVSWSSPVAPFDYYRVSYRPTQVGRLDSSVVPNTVTEFAITRLYPATEYEISLNSVRGREESERICTLVHTAMDSPMDLIATNITPTEALLQWKAPMGEVENYVIVLTHFAIAGETILVDGVSEEFQLVDLLPSTHYTVTMYATSGPLMSGTIATNFSTLLDPPDNLTASEVTRQSALISWQPPRAAIENYVLTYKSTDGSRKELIVDAEDTWIRLEGLSENTDYTVLLQAAQEATRSSLTSTVFTTGGRVFSHPQDCAQHLMNGDTLSGVYTIFLNGELSHKLQVYCDMTTDGGGWIVFQRRQNGQTDFFRKWADYRVGFGNLEDEFWLGLDNIHRITAQGRYELRVDMRDGQEAVFAYYDKFAVEDSRSLYKIRIGSYNGTAGDSLSYHQGRPFSTEDRDNDVAVTNCAMSYKGAWWYKNCHRTNLNGKYGESRHSQGINWYHWKGHEFSIPFVEMKMRPYIHRLTAGRKRRALKF
For B1, the binding [3] was “binds”.

B2: ADAM11 ectodomain (Fc and AP fusions) (domain or fragment, UniProt Q9R1V4 230-738)
chain: QVRRGHPTVHSETKYVELIVINDHQLFEQMRQSVVLTSNFAKSVVNLADVIYKEQLNTRIVLVAMETWADGDKIQVQDDLLETLARLMVYRREGLPEPSDATHLFSGRTFQSTSSGAAYVGGICSLSRGGGVNEYGNMGAMAVTLAQTLGQNLGMMWNKHRSSAGDCKCPDIWLGCIMEDTGFYLPRKFSRCSIDEYNQFLQEGGGSCLFNKPLKLLDPPECGNGFVEAGEECDCGSVQECSRAGGNCCKKCTLTHDAMCSDGLCCRRCKYEPRGVSCREAVNECDIAETCTGDSSQCPPNLHKLDGYYCDHEQGRCYGGRCKTRDRQCQALWGHAAADRFCYEKLNVEGTERGNCGRKGSGWVQCSKQDVLCGFLLCVNISGAPRLGDLGGDISSVTFYHQGKELDCRGGHVQLADGSDLSYVEDGTACGPNMLCLDHRCLPASAFNFSTCPGSGERRICSHHGVCSNEGKCICQPDWTGKDCSIHNPLPTSPPTGETERYKGPSGTN
With B2 the binding [4] was “binds”.

B3: NCAM2 ectodomain (Fc and AP fusions) (domain or fragment, UniProt O35136 20-697)
chain: LLQVTISLSKVELSVGESKFFTCTAIGEPESIDWYNPQGEKIISTQRVMLQKEGVRSRLTIYNANIEDAGIYRCQATDAKGQTQEATVVLEIYQKLTFREVVSPQEFKQGEDAEVVCRVSSSPAPAVSWLYHNEEVTTIPDNRFAVLANNNLQILNINKSDEGIYRCEGRVEARGEIDFRDIIVIVNVPPAIMMPQKSFNATAERGEEMTLTCKASGSPDPTISWFRNGKLIEENEKYILKGSNTELTVRNIINKDGGSYVCKATNKAGEDQKQAFLQVFVQPHILQLKNETTSENGHVTLVCEAEGEPVPEITWKRAIDGVMFSEGDKSPDGRIEVKGQHGRSSLHIRDVKLSDSGRYDCEAASRIGGHQRSMHLDIEYAPKFVSNQTMYYSWEGNPINISCDVTANPPASIHWRREKLLLPAKNTTHLKTHSVGRKMILEIAPTSDNDFGRYNCTATNRIGTRFQEYILELADVPSSPHGVKIIELSQTTAKISFNKPESHGGVPIHHYQVDVKEVASETWKIVRSHGVQTMVVLSSLEPNTTYEIRVAAVNGKGQGDYSKIEIFQTLPVREPSPPSIHGQPSSGKSFKISITKQDDGGAPILEYIVKYRSKDKEDQWLEKKVQGNKDHIILEHLQWTMGYEVQITAANRLGYSEPTVYEFSMPPKPNIIKDTLFN
With B3 the binding [5] was “binds”.

B4: ALCAM ectodomain (Fc and AP fusions) (domain or fragment, UniProt Q61490 28-527)
chain: WYTVNSAYGDTIVMPCRLDVPQNLMFGKWKYEKPDGSPVFIAFRSSTKKSVQYDDVPEYKDRLSLSENYTLSIANAKISDEKRFVCMLVTEDNVFEAPTLVKVFKQPSKPEIVNKAPFLETDQLKKLGDCISRDSYPDGNITWYRNGKVLQPVEGEVAILFKKEIDPGTQLYTVTSSLEYKTTRSDIQMPFTCSVTYYGPSGQKTIYSEQEIFDIYYPTEQVTIQVLPPKNAIKEGDNITLQCLGNGNPPPEEFMFYLPGQPEGIRSSNTYTLTDVRRNATGDYKCSLIDKRNMAASTTITVHYLDLSLNPSGEVTKQIGDTLPVSCTISASRNATVVWMKDNIRLRSSPSFSSLHYQDAGNYVCETALQEVEGLKKRESLTLIVEGKPQIKMTKKTDPSGLSKTIICHVEGFPKPAIHWTITGSGSVINQTEESPYINGRYYSKIIISPEENVTLTCTAENQLERTVNSLNVSAISIPEHDEADDISDENREKVNDQAK
For B4, the binding [6] was “binds”.

From PMC7560607, “Synapse type-specific proteomic dissection identifies IgSF8 as a hippocampal CA3 microcircuit organizer” (Nature Communications, 2020)
